# Results reported in patent US12599662B2, “Methods and compositions for treating cancers” (INSERM (INSTITUT NATIONAL DE LA SANTÉ ET DE LA RECHERCHE …, priority 2018, dated 2026).
# System: LLC1
# Test: MTT cell proliferation assay on LLC1
# Type: cell-based
# Conditions: Mus musculus
# Description: Non-small cell lung cancer (NSCLC) cell line (lewis lung carcinoma, LLC) expressing a particularly aggressive metastatic phenotype was used. Four HDAC inhibitors molecules were evaluated: Entinostat, Levetiracetatm, Vorinostat (Zolinga®) and valproic acid (VPA) (Depakine®), for the expression of Major Histocompatibility Complex (MHC) Class I and II using Flow cytometry analysis.
# The half maximal inhibitory concentration (IC50) was first determined for each HDACi using an MTT cell proliferation assay. LLC1 was treated with an increasing dose of HDCAi and proliferation was estimated measuring the absorbance after the incorporation by the cell of MMT (3-(4,5-dimethylthiazol-2-yl)-2,5-diphenyl tetrazolium bromide) substrate. The IC50 (levels) for Vorinostat, Entinostat and Levetiracetam were between 2 and 4 μM and around 2 mM for valproic acid.
compound,measurement,value
"O=C(CCCCCCC(=O)Nc1ccccc1)NO [Vorinostat, N-Hydroxy-N′-phenyloctanediamide]",IC50,2 to 4 µM
